Experimental data: patent US11197904B2, “Pharmaceutical compositions for preventions and managements of dementia, infectious diseases, cancers, periodontitis, dental caries, diabetes, obesity, osteoporosis and chronic pain and methods thereof” (Chung Shan Medical University, priority 2018, dated 2021)
≈ marks a conversion by molar mass, not a printed value.

Key:
Assay in all cases: microbe, parasite or virus in culture
[1] = system: Pseudomonas aeruginosa (P.a.); conditions: read-out: IC50, 50% inhibition on bacterial proliferation, P. a.
[2] = system: Staphylococcus aureus (S.a); conditions: read-out: IC50, 50% inhibition on bacterial proliferation, S. a.
[3] = system: Streptococcus mutans (S.m., UA159); conditions: read-out: IC50, 50% inhibition on bacterial proliferation, UA159

CSc1ccc2c(c1)N(CCC1CCCCN1C)c1ccccc1S2 (stereo not drawn) [Thioridazine]
IC50 [1]: 104 µg/mL (≈ 281 µM)
IC50 [2]: 13 µg/mL (≈ 35.1 µM)
IC50 [3]: 12 µg/mL (≈ 32.4 µM)
